Record: PubChem BioAssay AID652272 (Drosophila RNAi Screening Center, 2013)

- Assay: 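Genes whose knock-down decreases or increases Hedgehog reporter output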 (primary screen)
- Cell system: Drosophila clone 8 (Cl8) cells
- Knock-down reagent: long dsRNA against Drosophila genes
- Measured: 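Firefly light from a Hedgehog-responsive ptc promoter reporter and Renilla reference light, both read on a plate reader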
- Scale: firefly Hh reporter signal: higher = more ptc reporter light; Renilla reference signal: higher = more Renilla control light
- Hit rule: 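Hit when the z-score averaged over two replicates is under -2 or over +3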
- Calls: active = hit: reporter lowered or raised; inactive = not a hit
The screen tested about 21,000 reagents; this is an unselected part of those with a known target gene and a result. Of all reagents, 503 (2.4%) got an active call. 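Raw plate light values, not normalised; calls rest on replicate z-scores that were not deposited; hits include reporter decreases as well as increases.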 Entries without a mark were called inactive. The numbers tell different reagents against one gene apart. Names joined by + are all predicted targets of the reagent. The record does not give: the amount of reagent, the time to read-out.

target	reagent no.	firefly Hh reporter signal, replicate 1	firefly Hh reporter signal, replicate 2	firefly Hh reporter signal, replicate 3	Renilla reference signal, replicate 1	Renilla reference signal, replicate 2
MED22 (GeneID 31038)	1	53880	1.65e5		2053	7200
CG3330 (GeneID 43296)	1	1.17e5	67217		2624	2018
CG3123 (GeneID 33478)	1	1.17e5	95286		2624	2525
pdm2 (GeneID 34673)	1	1.32e5	55149		3317	4725
pdm2 (GeneID 34673)	2	1.05e5	28219		2998	2752
pdm2 (GeneID 34673)	3	1.33e5	44195		2842	4054
CG31342 (GeneID 41592)	1	1.67e5	86512		6669	3748
CG31342 (GeneID 41592)	2	70656	91784		1584	2314
CG5641 (GeneID 41529)	1	1.21e5	81419		5063	3424
CG4860 (GeneID 41480)	1	1.92e5	8.49e5	1.13e5	8395	47936
COX4 (GeneID 35279)	1	68848	29824		2036	1433
tok (GeneID 42944)	1	87120	80216		2905	2980
xmas (GeneID 44271)	1	3.60e5	1.76e5		21889	8592
CG11470 (GeneID 43480)	1	74882	1.03e5		2010	3027
CG2839 (GeneID 33244)	1	1.31e5	98916		3392	2580
CG15534 (GeneID 43613)	1	58161	96422		2004	2197
pHCl-2 (GeneID 43703)	1	1.49e5	99616		5959	954
Spindly (GeneID 33578)	1	1.36e5	63178		3261	6439
CG13216 (GeneID 36181)	1	89560	39808		2161	3025
CG3918 (GeneID 31585)	1	50470	34147		1372	771
CG14082 (GeneID 40088)	1	1.38e5	1.42e5		4213	3957
Pepck2 (GeneID 37130)	1	1.26e5	74493		3367	4456
Prosalpha4 (GeneID 32584)	1	74641	1.95e5		2780	9893
CG42521 (GeneID 8674012)	1	18112	62902	65289	5284	5798
Ugt37C2 (GeneID 53513)	1	84617	55015		2235	5209
CG1582 (GeneID 32021)	1	1.13e5	87345		2746	2096
CG11700 (GeneID 31564)	1	5258 (active)	13079		454	1632
CG14423 (GeneID 31287)	1	1.04e5	2.54e5		3506	8704
CG13287 (GeneID 38660)	1	3.40e5	43725		2137	2137
Rift (GeneID 43756)	1	1.07e5	2.22e5		3760	8288
PGRP-SD (GeneID 38858)	1	36443	57165		4349	4021
CG6178 (GeneID 42867)	1	1.07e5	54025		4301	2225
app (GeneID 39399)	1	1.86e5	3.49e5		4802	13616
app (GeneID 39399)	2	77060	46333	61232	4426	5132
app (GeneID 39399)	3	48811	58980	75700	5463	5356
ppk15 (GeneID 43188)	1	3.77e5	55505		28704	1800
CG16825 (GeneID 34739)	1	1.02e5	42608		2150	3741
CNBP (GeneID 37646)	1	81500	40228		2412	4293
CNBP (GeneID 37646)	2	1.51e5	7.74e5	1.29e5	6653	42624
CG12998 (GeneID 32710)	1	88342	2.14e5		1505	8360
CG4267 (GeneID 33405)	1	4.33e5	1.86e5		24544	7961
CG4267 (GeneID 33405)	2	69555	81680		1756	1652
CG14566 (GeneID 40421)	1	1.45e5	1.48e5		5132	19510
CG13054 (GeneID 39780)	1	95365			3236	3176
CG17059 (GeneID 50227)	1	1.17e5	63224		3243	4928
CG6026 (GeneID 42287)	1	4.64e5	78915		31098	2600
Cad99C (GeneID 43528)	1	78928	1.35e5		2288	6105
Cad99C (GeneID 43528)	2	1.41e5	88624		3079	2640
PIG-H + Kmn2	1	1.33e5			2387	
PHDP (GeneID 37788)	1	86535	69449		1808	5868
CG17380 (GeneID 42766)	1	6.37e5	80839		35299	2720
CG11672 (GeneID 40977)	1	71520	98131		3081	2579
Cox10 (GeneID 34394)	1	69332	44619		2755	1728
CG2202 (GeneID 32014)	1	1.41e5	4.03e5	1.05e5	2704	21001
CG11741 (GeneID 5740784)	1	77656	1.55e5		3634	4260
CG30281 (GeneID 246525)	1	1.04e5	1.09e5		3668	3840
GstD10 (GeneID 59240)	1	65732	1.10e5		2267	2886
Cpr65Ea (GeneID 38773)	1	46217	61106		5462	4675
Cyp313b1 (GeneID 41019)	1	89091	1.29e5		4018	4299
CG6961 + CG18259	1	59193	1.86e5		986	8675
CG6961 + CG18259	2	94423	91779		2261	2357
Cyp40 (GeneID 39121)	1	1.07e5	59184		4540	2710
CG33792 (GeneID 3772111)	1	1.72e5	1.97e5		5168	11116
CG16727 (GeneID 42338)	1	8.44e5	1.62e5		45017	4970
CG17147 (GeneID 40216)	1	1.09e5	1.63e5		3767	4939
CG8006 (GeneID 38920)	1	81184	72000		3270	2517
Ir94f (GeneID 318632)	1	43699	2.04e5		11104	4819
Or67d (GeneID 39191)	1	80530	41289	29392	4921	2832
CG7220 (GeneID 36129)	1	1.12e5	2.28e5		3172	10417
CG7220 (GeneID 36129)	2	1.06e5	59840		2793	6027
CG11200 (GeneID 37301)	1	87968	61044		3511	2661
Tina-1 (GeneID 37989)	1	89189	1.05e5		3638	4227
CG4168 (GeneID 34889)	1	1.51e5	2.71e5		4331	13307
CG4168 (GeneID 34889)	2	1.10e5	1.98e5		3232	9860
CG4168 (GeneID 34889)	3	62476	62081		2624	2710

7 of these entries, set out differently:
{"target": "ppk15 (GeneID 43188)", "reagent no.": 1, "firefly Hh reporter signal, replicate 1": 3.77e5, "firefly Hh reporter signal, replicate 2": 55505, "Renilla reference signal, replicate 1": 28704, "Renilla reference signal, replicate 2": 1800}
{"target": "CG16825 (GeneID 34739)", "reagent no.": 1, "firefly Hh reporter signal, replicate 1": 1.02e5, "firefly Hh reporter signal, replicate 2": 42608, "Renilla reference signal, replicate 1": 2150, "Renilla reference signal, replicate 2": 3741}
{"target": "CNBP (GeneID 37646)", "reagent no.": 1, "firefly Hh reporter signal, replicate 1": 81500, "firefly Hh reporter signal, replicate 2": 40228, "Renilla reference signal, replicate 1": 2412, "Renilla reference signal, replicate 2": 4293}
{"target": "CNBP (GeneID 37646)", "reagent no.": 2, "firefly Hh reporter signal, replicate 1": 1.51e5, "firefly Hh reporter signal, replicate 2": 7.74e5, "firefly Hh reporter signal, replicate 3": 1.29e5, "Renilla reference signal, replicate 1": 6653, "Renilla reference signal, replicate 2": 42624}
{"target": "CG12998 (GeneID 32710)", "reagent no.": 1, "firefly Hh reporter signal, replicate 1": 88342, "firefly Hh reporter signal, replicate 2": 2.14e5, "Renilla reference signal, replicate 1": 1505, "Renilla reference signal, replicate 2": 8360}
{"target": "CG4267 (GeneID 33405)", "reagent no.": 1, "firefly Hh reporter signal, replicate 1": 4.33e5, "firefly Hh reporter signal, replicate 2": 1.86e5, "Renilla reference signal, replicate 1": 24544, "Renilla reference signal, replicate 2": 7961}
{"target": "CG4267 (GeneID 33405)", "reagent no.": 2, "firefly Hh reporter signal, replicate 1": 69555, "firefly Hh reporter signal, replicate 2": 81680, "Renilla reference signal, replicate 1": 1756, "Renilla reference signal, replicate 2": 1652}
